PubChem BioAssay AID652243 – Drosophila RNAi Screening Center | 2013

Assay: 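Fly genes required for human androgen receptor driven transcription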 (primary screen)
Cell system: Drosophila S2R+ cells
Knock-down reagent: long dsRNA against Drosophila genes
Timing: 72 h (48 h, then 24 h hormone)
Challenge: synthetic androgen R1881 at 10 nM for 24 h
Measurement: 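Firefly light from an androgen-responsive reporter and Renilla control light per well, raw and unnormalised, for each of two replicates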
Reading the numbers: firefly reporter light: higher = more light from androgen-responsive reporter; Renilla control light: higher = more constitutive control signal (cell number, transfection)
Active means: 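Hit when the log firefly-to-Renilla ratio dropped or increased by a fixed fold versus the mean of GFP or LacZ controls across duplicate plates; lowering cut given as 1.5 and as 3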
Calls: active = hit: reporter lowered or raised; inactive = no hit
The deposit covers about 24,000 reagents; shown is a random part of those that have a named target and a result. In the full data, 246 (1%) got an active call. 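Plates not normalised; calls are printed but the firefly/Renilla ratio behind them is not deposited; fold cut for lowering reported inconsistently.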 Raw values are not corrected between plates. Not stated in the record: the amount of reagent.

How did the screen score tomboy40 (GeneID 35553) [DRSC04918]?
firefly reporter light, replicate 1: 1.09e6; firefly reporter light, replicate 2: 8.26e5; Renilla control light, replicate 1: 1.69e6; Renilla control light, replicate 2: 1.39e6; Call: inactive

With tomboy40 (GeneID 35553) [DRSC28442], what does the deposit list?
firefly reporter light, replicate 1: 4.39e5; firefly reporter light, replicate 2: 9.56e5; Renilla control light, replicate 1: 6.61e5; Renilla control light, replicate 2: 9.86e5; Call: inactive

What did the screen give for CG33144 (GeneID 36131) [DRSC07024]?
firefly reporter light, replicate 1: 4.41e5; firefly reporter light, replicate 2: 3.22e5; Renilla control light, replicate 1: 2.51e6; Renilla control light, replicate 2: 2.17e6; Call: inactive

Which result is listed for CG33144 (GeneID 36131) [DRSC25033]?
firefly reporter light, replicate 1: 8.46e5; firefly reporter light, replicate 2: 9.46e5; Renilla control light, replicate 1: 1.18e6; Renilla control light, replicate 2: 1.18e6; Call: inactive

For Fmo-1 (GeneID 37814) [DRSC04328], what was measured?
firefly reporter light, replicate 1: 1.34e6; firefly reporter light, replicate 2: 6.61e5; Renilla control light, replicate 1: 2.17e6; Renilla control light, replicate 2: 1.03e6; Call: inactive

For Fmo-1 (GeneID 37814) [DRSC29306], how do the results read?
firefly reporter light, replicate 1: 1.08e6; firefly reporter light, replicate 2: 1.12e6; Renilla control light, replicate 1: 9.00e5; Renilla control light, replicate 2: 8.21e5; Call: inactive

What is on record for CG1486 (GeneID 33108) [DRSC20508]?
firefly reporter light, replicate 1: 1.16e5; firefly reporter light, replicate 2: 1.12e5; Renilla control light, replicate 1: 9.32e5; Renilla control light, replicate 2: 8.55e5; Call: inactive

With CG1486 (GeneID 33108) [DRSC28958], how do the results read?
firefly reporter light, replicate 1: 6.01e5; firefly reporter light, replicate 2: 5.43e5; Renilla control light, replicate 1: 1.61e6; Renilla control light, replicate 2: 1.11e6; Call: inactive

With CG34457 (GeneID 5740661) [DRSC06924], what was measured?
firefly reporter light, replicate 1: 63821; firefly reporter light, replicate 2: 92871; Renilla control light, replicate 1: 1.01e6; Renilla control light, replicate 2: 1.01e6; Call: inactive

How did the screen score CG14246 (GeneID 3772140) [DRSC14741]?
firefly reporter light, replicate 1: 3.28e5; firefly reporter light, replicate 2: 3.01e5; Renilla control light, replicate 1: 2.07e6; Renilla control light, replicate 2: 2.41e6; Call: inactive

For CG14246 (GeneID 3772140) [DRSC27766], what does the deposit list?
firefly reporter light, replicate 1: 7.14e5; firefly reporter light, replicate 2: 5.23e5; Renilla control light, replicate 1: 8.31e5; Renilla control light, replicate 2: 8.06e5; Call: inactive

What is on record for CG6418 (GeneID 39218) [DRSC10633]?
firefly reporter light, replicate 1: 1.17e6; firefly reporter light, replicate 2: 7.54e5; Renilla control light, replicate 1: 1.70e6; Renilla control light, replicate 2: 1.22e6; Call: inactive

With CG6418 (GeneID 39218) [DRSC27621], what does the deposit list?
firefly reporter light, replicate 1: 2.43e5; firefly reporter light, replicate 2: 2.03e5; Renilla control light, replicate 1: 6.99e5; Renilla control light, replicate 2: 9.00e5; Call: inactive

How did the screen score CG11425 (GeneID 40472) [DRSC11657]?
firefly reporter light, replicate 1: 3.08e5; firefly reporter light, replicate 2: 1.84e5; Renilla control light, replicate 1: 2.14e6; Renilla control light, replicate 2: 1.90e6; Call: inactive

What did the screen give for CG11425 (GeneID 40472) [DRSC28400]?
firefly reporter light, replicate 1: 2.83e5; firefly reporter light, replicate 2: 5.56e5; Renilla control light, replicate 1: 8.54e5; Renilla control light, replicate 2: 1.32e6; Call: inactive

How did the screen score CG31195 (GeneID 46155) [DRSC13440]?
firefly reporter light, replicate 1: 96107; firefly reporter light, replicate 2: 85207; Renilla control light, replicate 1: 1.63e5; Renilla control light, replicate 2: 2.11e5; Call: inactive

With Zasp67 (GeneID 39148) [DRSC10169], what was measured?
firefly reporter light, replicate 1: 2.53e5; firefly reporter light, replicate 2: 2.21e5; Renilla control light, replicate 1: 3.78e6; Renilla control light, replicate 2: 3.39e6; Call: inactive

How did the screen score Zasp67 (GeneID 39148) [DRSC24457]?
firefly reporter light, replicate 1: 8.12e5; firefly reporter light, replicate 2: 9.72e5; Renilla control light, replicate 1: 9.85e5; Renilla control light, replicate 2: 1.15e6; Call: inactive

Part of the list above in another layout:
{"gene knocked down": "CG31195 (GeneID 46155)", "dsRNA": "DRSC13440", "firefly reporter light, replicate 1": 96107, "firefly reporter light, replicate 2": 85207, "Renilla control light, replicate 1": 1.63e5, "Renilla control light, replicate 2": 2.11e5, "Call": "inactive"}
{"gene knocked down": "Zasp67 (GeneID 39148)", "dsRNA": "DRSC10169", "firefly reporter light, replicate 1": 2.53e5, "firefly reporter light, replicate 2": 2.21e5, "Renilla control light, replicate 1": 3.78e6, "Renilla control light, replicate 2": 3.39e6, "Call": "inactive"}

Additional reagents:
With CG32237 (GeneID 38584) [DRSC08312], what was measured?
firefly reporter light, replicate 1: 2.56e5; firefly reporter light, replicate 2: 1.97e5; Renilla control light, replicate 1: 2.17e6; Renilla control light, replicate 2: 3.89e6; Call: inactive

Which result is listed for CG32237 (GeneID 38584) [DRSC08315]?
firefly reporter light, replicate 1: 2.08e5; firefly reporter light, replicate 2: 2.55e5; Renilla control light, replicate 1: 2.27e6; Renilla control light, replicate 2: 3.56e6; Call: inactive

For CG32237 (GeneID 38584) [DRSC29288], what does the deposit list?
firefly reporter light, replicate 1: 4.64e5; firefly reporter light, replicate 2: 5.28e5; Renilla control light, replicate 1: 1.21e6; Renilla control light, replicate 2: 1.17e6; Call: inactive

What did the screen give for CG34250 (GeneID 5740115) [DRSC38751]?
firefly reporter light, replicate 1: 1.01e6; firefly reporter light, replicate 2: 5.96e5; Renilla control light, replicate 1: 1.96e6; Renilla control light, replicate 2: 1.53e6; Call: inactive

With p23 (GeneID 41173) [DRSC15158], how do the results read?
firefly reporter light, replicate 1: 1.09e5; firefly reporter light, replicate 2: 67648; Renilla control light, replicate 1: 7.33e5; Renilla control light, replicate 2: 8.27e5; Call: inactive

Which result is listed for p23 (GeneID 41173) [DRSC27806]?
firefly reporter light, replicate 1: 2.16e5; firefly reporter light, replicate 2: 2.38e5; Renilla control light, replicate 1: 3.54e5; Renilla control light, replicate 2: 6.00e5; Call: inactive

How did the screen score CG15605 (GeneID 36933) [DRSC06558]?
firefly reporter light, replicate 1: 1.07e5; firefly reporter light, replicate 2: 1.03e5; Renilla control light, replicate 1: 1.34e6; Renilla control light, replicate 2: 1.34e6; Call: inactive

For by (GeneID 41144) [DRSC16482], how do the results read?
firefly reporter light, replicate 1: 1.61e5; firefly reporter light, replicate 2: 1.66e5; Renilla control light, replicate 1: 3.27e6; Renilla control light, replicate 2: 3.09e6; Call: inactive

With by (GeneID 41144) [DRSC28644], what was measured?
firefly reporter light, replicate 1: 4.86e5; firefly reporter light, replicate 2: 4.18e5; Renilla control light, replicate 1: 1.37e6; Renilla control light, replicate 2: 1.52e6; Call: inactive
